Laboratory results reported in the supplement of paper PMC8728848.
The other results are listed elsewhere or left out.

Experiments:
Assay in all cases: glycan array binding signal (z-score within array); higher = stronger binding
Settings in all cases: glycan notation: IUPAC condensed, linker removed
Gal6S(b1-4)Glc6S = target: Gal6S(b1-4)Glc6S
How it was run: (§1)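 Glycan array data came from 3228 arrays in the Consortium for Functional Glycomics database, and only arrays with an available protein sequence were kept. Glycan names were put into IUPAC-condensed notation, and columns mapping to the same glycan were averaged. The binding signal is a within-array Z-score, averaged across arrays of one protein sequence run at different concentrations or buffers and across linkers. A negative Z-score can be read as non-binding.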

Gal6S(b1-4)GlcNAc = target: Gal6S(b1-4)GlcNAc
How it was run: as §1

Gal6S(b1-4)GlcNAc6S = target: Gal6S(b1-4)GlcNAc6S
How it was run: as §1

GalNAc(a1-3)Gal = target: GalNAc(a1-3)Gal
How it was run: as §1

GalNAc(a1-3)GalNAc = target: GalNAc(a1-3)GalNAc
How it was run: as §1

[1] = target: GalNAc(a1-3)GalNAc(b1-3)Gal(a1-4)Gal(b1-4)Glc
How it was run: as §1

[2] = target: GalNAc(a1-3)GalNAc(b1-3)Gal(a1-4)Gal(b1-4)GlcNAc
How it was run: as §1

GalNAc(b1-3)Gal = target: GalNAc(b1-3)Gal
How it was run: as §1

[3] = target: GalNAc(b1-3)Gal(a1-4)Gal(b1-4)GlcNAc
How it was run: as §1

[4] = target: GalNAc(b1-3)Gal(a1-4)Gal(b1-4)GlcNAc(b1-3)Gal(b1-4)Glc
How it was run: as §1

[5] = target: GalNAc(b1-3)Gal(a1-6)Gal(b1-4)Glc
How it was run: as §1

GalNAc(b1-3)GalNAc = target: GalNAc(b1-3)GalNAc
How it was run: as §1

GalNAc(b1-4)Gal(b1-4)Glc = target: GalNAc(b1-4)Gal(b1-4)Glc
How it was run: as §1

GalNAc(b1-4)GlcNAc = target: GalNAc(b1-4)GlcNAc
How it was run: as §1

[6] = target: GalNAc(b1-4)GlcNAc(b1-2)Man(a1-3)[GalNAc(b1-4)GlcNAc(b1-2)Man(a1-6)]Man(b1-4)GlcNAc(b1-4)GlcNAc
How it was run: as §1

GalNAc(b1-6)GalNAc = target: GalNAc(b1-6)GalNAc
How it was run: as §1

Glc(a1-4)Glc = target: Glc(a1-4)Glc
How it was run: as §1

[7] = target: Glc(a1-4)Glc(a1-4)Glc(a1-4)Glc
How it was run: as §1

Glc(a1-6)Glc(a1-6)Glc = target: Glc(a1-6)Glc(a1-6)Glc
How it was run: as §1

[8] = target: Glc(a1-6)Glc(a1-6)Glc(a1-6)Glc
How it was run: as §1

Glc(b1-4)Glc = target: Glc(b1-4)Glc
How it was run: as §1

Glc(b1-6)Glc = target: Glc(b1-6)Glc
How it was run: as §1

GlcA(b1-3)Gal = target: GlcA(b1-3)Gal
How it was run: as §1

GlcA(b1-3)GlcNAc = target: GlcA(b1-3)GlcNAc
How it was run: as §1

GlcA(b1-6)Gal = target: GlcA(b1-6)Gal
How it was run: as §1

[9] = target: GlcNAc(a1-3)Gal(b1-4)GlcNAc
How it was run: as §1

[10] = target: GlcNAc(a1-4)Gal(b1-3)GlcNAc
How it was run: as §1

[11] = target: GlcNAc(a1-4)Gal(b1-4)GalNAc
How it was run: as §1

[12] = target: GlcNAc(a1-4)Gal(b1-4)GlcNAc
How it was run: as §1

[13] = target: GlcNAc(a1-4)Gal(b1-4)GlcNAc(b1-3)Gal(b1-4)Glc
How it was run: as §1

[14] = target: GlcNAc(a1-4)Gal(b1-4)GlcNAc(b1-3)Gal(b1-4)GlcNAc
How it was run: as §1

[15] = target: GlcNAc(a1-4)Gal(b1-4)GlcNAc(b1-3)Gal(b1-4)GlcNAc(b1-3)Gal(b1-4)GlcNAc
How it was run: as §1

[16] = target: GlcNAc(a1-4)Gal(b1-4)GlcNAc(b1-3)Gal(b1-4)[Fuc(a1-3)]GlcNAc(b1-3)Gal(b1-4)[Fuc(a1-3)]GlcNAc
How it was run: as §1

[17] = target: GlcNAc(a1-6)Gal(b1-4)GlcNAc
How it was run: as §1

[18] = target: GlcNAc(b1-2)Gal(b1-3)GalNAc
How it was run: as §1

[19] = target: GlcNAc(b1-2)Man(a1-3)[GlcNAc(b1-2)Man(a1-6)]Man(b1-4)GlcNAc(b1-4)GlcNAc
How it was run: as §1

[20] = target: GlcNAc(b1-2)Man(a1-3)[GlcNAc(b1-2)Man(a1-6)]Man(b1-4)GlcNAc(b1-4)[Fuc(a1-6)]GlcNAc
How it was run: as §1

[21] = target: GlcNAc(b1-2)Man(a1-3)[GlcNAc(b1-4)][GlcNAc(b1-2)Man(a1-6)]Man(b1-4)GlcNAc(b1-4)GlcNAc
How it was run: as §1

[22] = target: GlcNAc(b1-2)[GlcNAc(b1-4)]Man(a1-3)[GlcNAc(b1-2)Man(a1-6)]Man(b1-4)GlcNAc(b1-4)GlcNAc
How it was run: as §1

[23] = target: GlcNAc(b1-2)[GlcNAc(b1-4)]Man(a1-3)[GlcNAc(b1-4)][GlcNAc(b1-2)Man(a1-6)]Man(b1-4)GlcNAc(b1-4)GlcNAc
How it was run: as §1

[24] = target: GlcNAc(b1-2)[GlcNAc(b1-4)]Man(a1-3)[GlcNAc(b1-4)][GlcNAc(b1-2)[GlcNAc(b1-6)]Man(a1-6)]Man(b1-4)GlcNAc(b1-4)GlcNAc
How it was run: as §1

[25] = target: GlcNAc(b1-2)[GlcNAc(b1-6)]Man(a1-6)[GlcNAc(b1-2)Man(a1-3)]Man(b1-4)GlcNAc(b1-4)GlcNAc
How it was run: as §1

[26] = target: GlcNAc(b1-2)[GlcNAc(b1-6)]Man(a1-6)[GlcNAc(b1-2)Man(a1-3)][GlcNAc(b1-4)]Man(b1-4)GlcNAc(b1-4)GlcNAc
How it was run: as §1

GlcNAc(b1-3)Gal = target: GlcNAc(b1-3)Gal
How it was run: as §1

[27] = target: GlcNAc(b1-3)Gal(b1-3)GalNAc
How it was run: as §1

B1: DCL-1 (Homo sapiens), Q8IX05 (protein)
chain: MLRAALPALLLPLLGLAAAAVADCPSSTWIQFQDSCYIFLQEAIKVESIEDVRNQCTDHGADMISIHNEEENAFILDTLKKQWKGPDDILLGMFYDTDDASFKWFDNSNMTFDKWTDQDDDEDLVDTCAFLHIKTGEWKKGNCEVSSVEGTLCKTAIPYKRKYLSDNHILISALVIASTVILTVLGAIIWFLYKKHSDSRFTTVFSTAPQSPYNEDCVLVVGEENEYPVQFD
glycan array binding signal (z-score) (Gal6S(b1-4)Glc6S): -0.975
glycan array binding signal (z-score) (Gal6S(b1-4)GlcNAc): -0.931
glycan array binding signal (z-score) (Gal6S(b1-4)GlcNAc6S): -0.816
glycan array binding signal (z-score) (GalNAc(a1-3)Gal): -0.001
glycan array binding signal (z-score) (GalNAc(a1-3)GalNAc): -0.197
glycan array binding signal (z-score) [1]: -0.238
glycan array binding signal (z-score) [2]: 0.047
glycan array binding signal (z-score) (GalNAc(b1-3)Gal): -0.083
glycan array binding signal (z-score) [3]: 0.296
glycan array binding signal (z-score) [4]: -0.381
glycan array binding signal (z-score) [5]: 0.319
glycan array binding signal (z-score) (GalNAc(b1-3)GalNAc): 0.148
glycan array binding signal (z-score) (GalNAc(b1-4)Gal(b1-4)Glc): -0.041
glycan array binding signal (z-score) (GalNAc(b1-4)GlcNAc): -0.385
glycan array binding signal (z-score) [6]: 1.17
glycan array binding signal (z-score) (GalNAc(b1-6)GalNAc): 0.054
glycan array binding signal (z-score) (Glc(a1-4)Glc): -0.28
glycan array binding signal (z-score) [7]: -0.87
glycan array binding signal (z-score) (Glc(a1-6)Glc(a1-6)Glc): -0.939
glycan array binding signal (z-score) [8]: -0.88
glycan array binding signal (z-score) (Glc(b1-4)Glc): -0.786
glycan array binding signal (z-score) (Glc(b1-6)Glc): -0.407
glycan array binding signal (z-score) (GlcA(b1-3)Gal): 1.13
glycan array binding signal (z-score) (GlcA(b1-3)GlcNAc): 0.61
glycan array binding signal (z-score) (GlcA(b1-6)Gal): 0.164
glycan array binding signal (z-score) [9]: -0.232
glycan array binding signal (z-score) [10]: -0.592
glycan array binding signal (z-score) [11]: 0.819
glycan array binding signal (z-score) [12]: -0.806
glycan array binding signal (z-score) [13]: 0.365
glycan array binding signal (z-score) [14]: 0.345
glycan array binding signal (z-score) [15]: 0.531
glycan array binding signal (z-score) [16]: 0.712
glycan array binding signal (z-score) [17]: 6.83
glycan array binding signal (z-score) [18]: 0.336
glycan array binding signal (z-score) [19]: -0.211
glycan array binding signal (z-score) [20]: 0.697
glycan array binding signal (z-score) [21]: -0.657
glycan array binding signal (z-score) [22]: 0.255
glycan array binding signal (z-score) [23]: -0.455
glycan array binding signal (z-score) [24]: 0.126
glycan array binding signal (z-score) [25]: -0.26
glycan array binding signal (z-score) [26]: -0.098
glycan array binding signal (z-score) (GlcNAc(b1-3)Gal): -0.319
glycan array binding signal (z-score) [27]: -0.259
